Reference: patent EP1568770A2, “Pharmaceutical use of compounds which bind to a mammalian "trace amine" receptor” (priority 2000, dated 2002)
Entries after “also recorded” stand apart in the source; their conditions may differ. For at least one compound, name, drawing or mass did not settle the structure. Some results were stated once for a whole list of compounds, not compound by compound.

Protein sequences, listed by entry. Tags and fused reporters are not part of them.
UniProt Q923Y9, whole entry: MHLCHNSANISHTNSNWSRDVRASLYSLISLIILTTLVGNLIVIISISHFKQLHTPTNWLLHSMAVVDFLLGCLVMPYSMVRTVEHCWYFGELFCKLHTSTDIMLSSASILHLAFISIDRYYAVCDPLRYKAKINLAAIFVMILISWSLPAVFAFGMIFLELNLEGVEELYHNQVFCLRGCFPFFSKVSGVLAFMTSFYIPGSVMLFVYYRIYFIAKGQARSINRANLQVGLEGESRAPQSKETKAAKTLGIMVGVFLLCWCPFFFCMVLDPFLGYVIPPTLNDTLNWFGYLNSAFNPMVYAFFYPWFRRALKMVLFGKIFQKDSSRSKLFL

Target: T1, rat trace amine receptor (Rattus norvegicus, UniProt Q923Y9)
T1 construct: HEK293 cells stably transfected with the pcDNA3.1/V5/His-TOPO expression vector containing the full-length rat cDNA clone described above; expressed in transfected cells
Assay type: cell-based

Compound	potency relative to the precursors dopamine, norepinephrine, and epinephrine	activation of the trace amine receptor / cAMP production, in words
COc1cc(CCN)ccc1O [3-methoxytyramine]	significantly more potent than their precursors; also recorded: more potently activated	–
CC(=O)OCC[N+](C)(C)C [acetylcholine]	–	not activated
CN1CCC(=C2c3ccccc3C=Cc3ccccc32)CC1 [cyproheptadine]	–	stimulate camp production
CNCC(O)c1ccc(O)c(OC)c1 (stereo not drawn) [metanephrine, 3-methoxy-β-4-dihydroxy-N-methyl-β-phenethylamine]	significantly more potent than their precursors; also recorded: more potently activated	–
COc1cc(C(O)CN)ccc1O (stereo not drawn) [normetanephrine, 3-methoxy-β-4-dihydroxy-β-phenethlamine]	significantly more potent than their precursors; also recorded: more potently activated	–
